Structures are written as SMILES. Some of the results follow. Cut-off read from the data, not from the text of the source: active = 150% or more and inactive = the rest. Many values rest on one well or one pass, so single values are uncertain.

For this test, the system named is Staphylococcus aureus JE2-lux inside RAW 264.7 macrophages. As to the kind of experiment: intracellular bacterial bioluminescence relative to DMSO vehicle; higher = higher intracellular bacterial metabolic activity. The following applies: 10 µM; treatment time 4 h; gentamicin 50 µg/ml.
Take `O=C(Cc1ccc(Cl)cc1)Nc1cccc(-c2ccc3nncn3n2)c1`: the intracellular bacterial bioluminescence was inactive: 71.4%.
As for `N#CC1=C(SCC(=O)Nc2ccccc2F)NC2=C(C(=O)CCC2)C1c1ccco1` (stereo unspecified), the intracellular bacterial bioluminescence is inactive: 64.7%.
The result for `CC1CCCCN1C(=O)CSc1ncnc2c1sc1nc3ccccc3cc12` (stereo unspecified) reads inactive: 105%; that for `CCOc1ccccc1C1Nc2ccc(CC)cc2[C@H]2OCCC[C@@H]12` (stereo partly specified), inactive: 44.5%; that for `Cc1ccc(NC(=O)C2OCOc3ccccc32)cc1N1CCCCC1` (stereo unspecified), inactive: 53.3%.
As for `O=C(CS(=O)CC(=O)Nc1cnc2ccccc2c1)Nc1ccc(Cl)cc1` (stereo unspecified), the intracellular bacterial bioluminescence was inactive: 72.7%.
The same measure for `O=C(CSc1nc2[nH]ncc2c(=O)n1-c1ccccc1)Nc1ccc(Cl)cc1Cl`: inactive: 70.2%; for `Cc1ccc(S(=O)(=O)CCCC(=O)Nc2nc3c(C)c(Cl)ccc3s2)cc1`: inactive: 65.4%.
The result for `COc1ccc(NCc2cc3c(C)nn(-c4ccccc4)c3[nH]c2=O)c(Cl)n1` reads inactive: 112%.
Take `N#Cc1nc(/C=C/c2cccs2)oc1N1CCNCC1`: the intracellular bacterial bioluminescence was inactive: 92.9%.
Regarding `CC1(C)Oc2ccc(S(=O)(=O)NCCCN3CCOCC3)cc2NC1=O`, the intracellular bacterial bioluminescence is inactive: 111%.
Consider `COc1ccc(CCNC(=O)Cc2cc(=O)[nH]c(=O)[nH]2)cc1OC`, for which the intracellular bacterial bioluminescence was inactive: 120%.
Regarding `Cc1cc(-c2cncnc2C2CCN(C(=O)c3cn(C)nc3C)CC2)on1`, the intracellular bacterial bioluminescence was inactive: 108%.
The same measure for `COc1ccc(NC(=O)CN2C(=O)N(C)N(C)c3ncccc32)cc1OC`: inactive: 94.9%; for `COc1ccc(C2=C(C)C(N3CCC(C(=O)NCCC(C)C)CC3)=NS2(=O)=O)cc1`: inactive: 93.6%.
As to `COc1ccc(-c2cn3c(C)c(C(=O)N4CCN(Cc5ccccc5)CC4)sc3n2)cc1`, the intracellular bacterial bioluminescence is inactive: 102%.
Consider `Cc1cccn2c(=O)nc(SCc3ccc(F)cc3)nc12`, for which the intracellular bacterial bioluminescence is inactive: 73.1%.
Turning to `COc1ccc(-c2cc(-c3ccccc3)nc(SCC(=O)Nc3nccs3)c2C#N)cc1`, the intracellular bacterial bioluminescence is inactive: 109%.
The result for `CC(c1ccccc1)N1CCn2c(nc3ccccc32)C1` (stereo unspecified) reads inactive: 82.8%; that for `Cc1c(Cl)cccc1S(=O)(=O)N1CCN(c2cc(C)c3c(C)nn(-c4ccccc4)c3n2)CC1`, inactive: 108%; that for `COc1ccc(Cl)c2sc(NC(=O)CN3C(=O)c4ccccc4C3=O)nc12`, inactive: 6.22%.
Consider `COc1cccc(OCc2nnc(SCC(=O)Nc3cc(C)on3)n2C)c1`, for which the intracellular bacterial bioluminescence is inactive: 44.1%.
The result for `CN(C)c1ncc(C(=O)NC(c2ccccc2)c2cccnc2)cn1` (stereo unspecified) reads inactive: 118%.
Turning to `CS(=O)(=O)c1ccc(CC(=O)Nc2ccc3ncsc3c2)cc1`, the intracellular bacterial bioluminescence was inactive: 16.1%.
The same measure for `COc1ccc(N2CCN(CCNc3ncnc4scc(-c5ccc(Cl)cc5)c34)CC2)cc1`: inactive: 46.5%; for `CC(=O)c1cccc(NC(=O)c2csc3nc(-c4ccc(F)cc4)cn23)c1`: inactive: 82.6%.
In the case of `COc1ccc(C2CC(=O)Nc3c2c(C)nn3-c2nc3ccccc3[nH]2)cc1Br` (stereo unspecified), the intracellular bacterial bioluminescence was inactive: 81.3%.
For the molecule `CS(=O)(=O)c1ccc(Sc2nc3ccccc3s2)c([N+](=O)[O-])c1`, the intracellular bacterial bioluminescence was inactive: 63.8%.
`CSc1nc2ccc(NC(=O)Nc3cccc(Cl)c3)cc2s1`: the intracellular bacterial bioluminescence is inactive: 103%.
For the molecule `COc1cc(OC)c(NC(=O)c2sc3nc(C)nc(N4CCCC4)c3c2C)cc1Cl`, the intracellular bacterial bioluminescence is inactive: 105%.
As for `CN(C1CCCCC1)S(=O)(=O)c1ccc(C(=O)Nc2sccc2C(N)=O)cc1`, the intracellular bacterial bioluminescence is inactive: 98.6%.
The result for `CCOC(=O)c1cc(C#N)c(SCC(=O)Nc2ccc(C(C)=O)cc2)nc1O` reads inactive: 129%; that for `COc1ccc(NC(=O)CSc2nc(-c3ccccc3)c3ccccc3n2)c(OC)c1`, inactive: 76.6%; that for `COC(=O)c1ccc2c(=O)[nH]c3c(C(=O)N4CCOCC4)sc(=S)n3c2c1`, inactive: 85%.
Turning to `COCCNC(=O)c1c(O)nc2sccn2c1=O`, the intracellular bacterial bioluminescence was inactive: 120%.
`O=C(CN1C(=O)/C(=C/c2cccc(Cl)c2)SC1=S)Nc1ccc2oc(=O)ccc2c1`: the intracellular bacterial bioluminescence is inactive: 114%.
For `COc1ccc2oc(=O)c(C(=O)Oc3ccc(C(C)=O)cc3OC)cc2c1`, the intracellular bacterial bioluminescence was inactive: 139%.
In the case of `O=C(c1ccc2c(c1)OCO2)N1CCc2nc(-c3ccccc3)[nH]c(=O)c2C1`, the intracellular bacterial bioluminescence was inactive: 104%.
Take `Cc1ccccc1OCCn1cnc2ccccc21`: the intracellular bacterial bioluminescence is inactive: 79.8%.
On to `O=C(CSc1nc(-c2ccc(Cl)cc2)cs1)NNC(=O)c1ccco1`, for which the intracellular bacterial bioluminescence was inactive: 88.8%.
Consider `C#CCn1/c(=N/C(=O)c2cc(=O)c3ccccc3o2)sc2cc3c(cc21)OCCO3`, for which the intracellular bacterial bioluminescence is inactive: 131%.
Turning to `CCc1cc(=O)[nH]c(Nc2ccc(C)c(Cl)c2)n1`, the intracellular bacterial bioluminescence is inactive: 14.7%.
The same measure for `CCOc1ccc(NC(=O)c2cnn3c(=O)c(C)c(C)[nH]c23)cc1`: inactive: 98.7%; for `Cn1c2c(c(=O)n(C)c1=O)C(c1ccc(OCc3ccccc3)cc1)C1=C(CC(C)(C)CC1=O)N2` (stereo unspecified): inactive: 93.5%; for `O=C(NCc1ccccc1Cl)C(=O)NCC(c1ccco1)S(=O)(=O)c1ccccc1` (stereo unspecified): inactive: 114%.
In the case of `CCCCN(C)c1cc(C(=O)O)c2cc(NC(=O)Cc3ccc(OC)cc3)ccc2n1`, the intracellular bacterial bioluminescence is inactive: 92.9%.
On to `Cc1ccc(NC(=O)N2CCCC2C(=O)Nc2cccnc2)cc1` (stereo unspecified), for which the intracellular bacterial bioluminescence is inactive: 125%.
As to `Cc1ccc2[nH]c3nc(SCC(=O)Nc4cccc(O)c4)nnc3c2c1`, the intracellular bacterial bioluminescence is inactive: 107%.
With `COc1ccc(CCNc2ncnc3c2c(-c2ccccc2)cn3-c2ccccc2C)cc1`, the intracellular bacterial bioluminescence is inactive: 60.1%.
The same measure for `CC(C)Sc1nc2c(c(=O)[nH]1)C(c1ccc(Br)cc1)C1=C(CCCC1=O)N2` (stereo unspecified): inactive: 127%; for `Nc1cc(O)nc(SCc2ccc(C(=O)c3ccccc3)cc2)n1`: inactive: 68.8%.
For the molecule `CC(=O)N1c2ccc(NC(=O)C3(C)CC(=O)N=C4C=C(C)C=CN43)cc2CC1C` (stereo unspecified), the intracellular bacterial bioluminescence is inactive: 99.5%.
As for `COc1cc(-c2nc(=O)[nH]c3ccc(Cl)cc23)cc(OC)c1OC`, the intracellular bacterial bioluminescence was inactive: 108%.
Consider `O=C1CC(c2ccccc2OC2CCCC2)c2cnn(-c3nc4ccccc4s3)c2N1` (stereo unspecified), for which the intracellular bacterial bioluminescence is inactive: 95.1%.
Consider `COc1ccc2nc(NCCNC(=O)c3ccc(OC)c(OC)c3)c(C#N)cc2c1`, for which the intracellular bacterial bioluminescence is inactive: 128%.
Turning to `CC1CCCCN1S(=O)(=O)c1ccc(C(=O)Nc2sc3c(c2C#N)CCC3)cc1` (stereo unspecified), the intracellular bacterial bioluminescence was inactive: 110%.
In the case of `Cc1cc2cc3c(N)c(C(=O)Nc4nc(C)c(C)s4)sc3nc2cc1C`, the intracellular bacterial bioluminescence is inactive: 92.9%.
For the molecule `O=C(CSCc1nc(O)c2nnn(Cc3ccc(F)cc3)c2n1)Nc1ccc2c(c1)OCCO2`, the intracellular bacterial bioluminescence was inactive: 119%.
Turning to `Cc1ccc(S(=O)(=O)n2nc(OC(=O)c3ccc(Cl)cc3Cl)cc2N)cc1`, the intracellular bacterial bioluminescence is inactive: 113%.
`COc1ccc(-c2cc(C(=O)NCC(c3ccccc3Cl)N(C)C)no2)cc1` (stereo unspecified): the intracellular bacterial bioluminescence is inactive: 55.4%.
The result for `O=C(NC(c1ccccc1)c1ccccc1)c1cnc2n(c1=O)CCS2` reads inactive: 59.8%; that for `Cc1c(Cl)ccc2sc(N(Cc3ccccn3)C(=O)c3ccc(S(C)(=O)=O)cc3)nc12`, inactive: 123%.
`Cc1ccnc(N2CCC(C(=O)NC3CCCCCC3)CC2)n1`: the intracellular bacterial bioluminescence was inactive: 69.3%.
For `O=C(COc1ccc(Cl)cc1)N1CCN=C1SCc1ccccc1F`, the intracellular bacterial bioluminescence is inactive: 53.5%.
Consider `O=C1CN(C(=O)c2ccccc2Br)C(c2ccccc2)c2cc(F)ccc2N1` (stereo unspecified), for which the intracellular bacterial bioluminescence was inactive: 84.6%.
For `O=C(CC1SC(=O)N(c2ccccc2)C1=O)Nc1ccccc1` (stereo unspecified), the intracellular bacterial bioluminescence was inactive: 85.7%.
As for `CCCN1C(=O)C(C)(C)COc2ccc(NS(=O)(=O)c3ccc4c(c3)CCCC4)cc21`, the intracellular bacterial bioluminescence is inactive: 114%.
With `COc1cccc(/C=N/c2cccc3c(=O)[nH][nH]c(=O)c23)c1O`, the intracellular bacterial bioluminescence is inactive: 81%.
The result for `CC(=O)c1c2c3c(c(Cl)ccc3[nH]c1=O)C(=O)c1ccccc1-2` reads inactive: 117%.
`Cn1c(SCC(=O)N2CCCC2)nc2c(-c3ccccc3)csc2c1=O`: the intracellular bacterial bioluminescence was inactive: 105%.
Regarding `O=C(CN(Cc1ccc(Cl)cc1)C(=O)c1cccnc1)N1CCNCC1`, the intracellular bacterial bioluminescence is inactive: 106%.
The result for `COCCN(Cc1cc2cc3c(cc2nc1Cl)OCO3)C(=O)NCc1ccccc1` reads inactive: 98.7%; that for `N#C/C(C(=O)NCc1ccco1)=C1/SC=C(c2ccccc2)N1c1ccccc1`, inactive: 103%.
Regarding `O=C(CSc1nc2c(c(=O)[nH]1)CN(Cc1ccc(F)cc1)CC2)Nc1ccc(Cl)cc1`, the intracellular bacterial bioluminescence was inactive: 68.7%.
Turning to `COC(=O)CCSc1ncnc2scc(-c3ccc(Cl)cc3)c12`, the intracellular bacterial bioluminescence is inactive: 71%.
The result for `NC(=O)C1Cc2ccccc2N1C(=O)CC(c1ccccc1)c1ccccc1` (stereo unspecified) reads inactive: 101%; that for `CCOc1ccc(NCc2ccc(O)c3ncccc23)cc1`, inactive: 104%.
For `Cc1ccc2nc(-c3ccc(NC(=O)C4CC4)cc3)sc2c1`, the intracellular bacterial bioluminescence is inactive: 108%.
Regarding `CCCCCNC(=O)c1cc(-c2ccc(Cl)cc2)nc2[nH]nc(-c3ccc(OC)cc3)c12`, the intracellular bacterial bioluminescence is inactive: 84.6%.
The same measure for `Cc1nc2c(C)cccc2cc1C(=O)NCCS(=O)(=O)NC1CCCCC1`: inactive: 53.8%; for `O=c1/c(=C/c2ccc(Br)cc2)sc2nc(-c3ccncc3)nn12`: inactive: 92.2%.
With `CCc1nnsc1C(=O)Nc1ccc(S(=O)(=O)N2CCOCC2)cc1`, the intracellular bacterial bioluminescence was inactive: 76.9%.
Turning to `O=C1NC(=O)c2cc(NC(=O)c3cc(Cl)sc3Cl)ccc21`, the intracellular bacterial bioluminescence is inactive: 114%.
For `NC(=O)c1c(Nc2nc3ccc(F)cc3s2)sc2c1CCCC2`, the intracellular bacterial bioluminescence is inactive: 90.8%.
With `O=C(CN1CCc2nc(N3CCOCC3)[nH]c(=O)c2C1)Nc1ccc2c(c1)OCO2`, the intracellular bacterial bioluminescence was inactive: 129%.
Turning to `O=C(NC1(CN2CCCC2)CCCCC1)C1OCOc2ccccc21` (stereo unspecified), the intracellular bacterial bioluminescence was inactive: 107%.
The result for `CCC(C)NC(=O)c1ccc2c(=O)n(C)c3n[nH]c(=S)n3c2c1` (stereo unspecified) reads inactive: 118%; that for `COc1ccc2cc(CCNC(=O)Cc3cccc4ccccc34)c(=O)[nH]c2c1`, inactive: 59.5%; that for `O=C(O)c1cc(-c2ccc(F)cc2)nc2ccccc12`, inactive: 106%.
On to `COc1ccc(N2C(=O)NC3CC2(C)Oc2ccc([N+](=O)[O-])cc23)c(OC)c1` (stereo unspecified), for which the intracellular bacterial bioluminescence was inactive: 91.8%.
For `CCc1ccc(NC(=O)Nc2ccccc2OCc2cc(=O)n3ccc(C)cc3n2)cc1`, the intracellular bacterial bioluminescence is inactive: 118%.

Source of the values: the supplement of paper PMC12578635.
